Reference: US8877808B2, “Protection against skin diseases by aurin tricarboxylic acid and its derivatives” (Aurin Biotech Inc., priority 2012, dated 2014)
For at least one compound, name, drawing or mass did not settle the structure.

By UniProt entry, the sequences of proteins in these tests, tags left out. Residues count along the entry.
UniProt P02748, 22-559: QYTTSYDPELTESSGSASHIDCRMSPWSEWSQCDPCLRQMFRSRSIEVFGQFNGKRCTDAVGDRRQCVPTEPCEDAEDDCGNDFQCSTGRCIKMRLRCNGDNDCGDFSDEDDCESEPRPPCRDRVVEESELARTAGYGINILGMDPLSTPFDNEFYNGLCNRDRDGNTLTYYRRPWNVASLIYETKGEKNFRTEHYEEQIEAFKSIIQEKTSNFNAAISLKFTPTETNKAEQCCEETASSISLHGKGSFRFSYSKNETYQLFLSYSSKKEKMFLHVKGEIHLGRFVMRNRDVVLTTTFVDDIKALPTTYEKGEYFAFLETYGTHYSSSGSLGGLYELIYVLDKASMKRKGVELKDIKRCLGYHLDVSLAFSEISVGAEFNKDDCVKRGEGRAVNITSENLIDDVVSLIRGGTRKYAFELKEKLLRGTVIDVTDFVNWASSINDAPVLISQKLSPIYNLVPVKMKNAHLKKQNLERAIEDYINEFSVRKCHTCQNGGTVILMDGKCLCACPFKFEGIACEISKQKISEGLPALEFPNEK

Assays:
[1] = test system: hair follicles; test: Topical application of ATA to bald scalp areas (androgenic alopecia); type: in vivo; conditions: 1-5 micrograms per ml, 2-3 times daily, after 4-6 weeks of treatment
[2] = test system: PC3bBb (C3 convertase); conditions: Lee et al. 2012b; cited from earlier work
[3] = biological target: C9 binding to C5b678 (Homo sapiens, UniProt P02748); conditions: Lee et al. 2012a; cited from earlier work

In the case of `O=C(O)C1=CC(=C(c2ccc(O)c(C(=O)O)c2)c2ccc(O)c(C(=O)O)c2)C=CC1=O` [ATA, aurin tricarboxylic acid], the “new hair follicles / hair growth in previously bald areas” value [1] is given as “an abundance of new hair follicles appearing in previously bald areas”, the “block of alternative pathway at the C3 convertase stage” value [2] is given as “blocks the alternative pathway at the C3 convertase stage” and the “block of classical pathway at C9 binding to C5b678, formation of the MAC (C5b-9)” value [3] is given as “block classical pathway formation at the stage of C9 binding to C5b678”.
